Consider 1 molecule from patent publication US20150064747A1.

The assay has as its target T1, GST-BMRF1(1-303) fusion polypeptide (Epstein-Barr Virus) (UniProt P03191).
T1 sequence: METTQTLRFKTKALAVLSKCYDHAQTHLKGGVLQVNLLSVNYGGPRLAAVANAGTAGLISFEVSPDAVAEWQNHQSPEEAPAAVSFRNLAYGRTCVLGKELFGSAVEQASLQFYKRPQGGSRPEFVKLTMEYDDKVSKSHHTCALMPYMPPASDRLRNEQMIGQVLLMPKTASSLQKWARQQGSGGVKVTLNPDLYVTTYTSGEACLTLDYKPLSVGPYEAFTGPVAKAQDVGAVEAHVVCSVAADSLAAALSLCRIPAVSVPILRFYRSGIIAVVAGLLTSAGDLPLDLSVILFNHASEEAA
The assay is described as follows: GST pull-down of [35S]-methionine labeled in vitro translated polypeptide, 100 mM ammonium sulfate.

Results are given in words; binding and its absence hold for the method and conditions named. In cells and extracts the contact can be indirect. Some entries that bind do so weakly or less than the wild type. Sequences can lack the tags named with a protein.

B1: BALF5 with deletion of the amino-terminal 160 residues (enzyme)
chain: VEFAVLSALKASTFDRRTPCRVSVEKVTRRSIMGYGNHAGDYHKITLSHPNSVCHVATWLQDKHGCRIFEANVDATRRFVLDNDFVTFGWYSCRRAIPRLQHRDSYAELEYDCEVGDLSVRREDSSWPSYQALAFDIECLGEEGFPTATNEADLILQISCVLWSTGEEAGRYRRILLTLGTCEDIEGVEVYEFPSELDMLYAFFQLIRDLSVEIVTGYNVANFDWPYILDRARHIYSINPASLGKIRAGGVCEVRRPHDAGKGFLRANTKVRITGLIPIDMYAVCRDKLSLSDYKLDTVARHLLGAKKEDVHYKEIPRLFAAGPEGRRRLGMYCVQDSALVMDLLNHFVIHVEVAEIAKIAHIPCRRVLDDGQQIRVFSCLLAAAQKENFILPMPSASDRDGYQGATVIQPLSGFYNSPVLVVDFASLYPSIIQAHNLCYSTMITPGEEHRLAGLRPGEDYESFRLTGGVYHFVKKHVHESFLASLLTSWLAKRKAIKKLLAACEDPRQRTILDKQQLAIKCTCNAVYGFTGVANGLFPCLSIAETVTLQGRTMLERAKAFVEALSPANLQALAPSPDAWAPLNPEGQLRVIYGDTDSLFIECRGFSESETLRFADALAAHTTRSLFVAPISLEAEKTFSCLMLITKKRYVGVLTDGKTLMKGVELVRKTACKFVQTRCRRVLDLVLADARVKEAASLLSHRPFQESFTQGLPVGFLPVIDILNQAYTDLREGRVPMGELCFSTELSRKLSAYKSTQMPHLAVYQKFVERNEELPQIHDRIQYVFVEPKGGVKGARKTEMAEDPAYAERHGVPVAVDHYFDKLLQGAANILQCLFDNNSGAALSVLQNFTARPPF
Turning to B1, the binding entry is “binds”.
